Test results published in PubChem BioAssay AID624291 (National Center for Advancing Translational Sciences (NCATS), 2012).
Among all 350,000 compounds or so, about 220 (0.063%) were called active. Inconclusive results, whose numbers are uncertain, are shown with a selection of clear calls. Calls follow the shape of the dose curve; as a rule, active = well fitted activation curve with a large enough effect; inconclusive = small, poorly fitted or top-dose-only effect; inactive = no such curve, though single readings can be large or run the other way. Where the call is inconclusive, the potency comes from a doubtful curve fit.

Experiment: qHTS for Activators of Integrin-Mediated Alleviation for Muscular Dystrophy; also: nearly all actives have a fitted effect of over 60% in size;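 as to activation: 100% = response of the positive control SU9516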
Settings: alpha7betagal myoblasts, beta-gal FDG fluorescence, 48 h; activation: at 38.3 µM (top of the series)
In short: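 Alpha7betagal+/- myoblasts (passage 13) were plated 16-24 hr, then exposed to compounds (1:260 dilution of DMSO stock) for 48 hours at 37C. After MPER lysis, β-galactosidase reporter activity was read as FDG fluorescence (ex 480/em 540) after 30 minutes.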
Potency is read from the fitted curve at half-maximal effect.

Potency, inconclusive:
Nc1[nH]n(-c2ccccc2)c(=O)c1N=Nc1ccccc1[N+](=O)[O-] 22.4 µM [activator, single point]
Cc1ccc(C)c(N2CCN(C(=O)CNS(=O)(=O)c3cccs3)CC2)c1 5.01 µM [activator, partial curve, poor fit]
O=C(NCCOc1ccccc1)C(=O)c1c[nH]c2ccccc12 0.891 µM [activator, partial curve, poor fit]
Cc1ccccc1C(C(=O)NC1CCCCC1)N(C(=O)CNC(=O)c1ccco1)c1cccnc1 (stereo unspecified) 17.8 µM [activator, single point]
Cc1c(C(=O)O)sc2nc(/C=C/c3ccccc3OC(F)F)[nH]c(=O)c12 2.82 µM [activator, single point]
Cc1ccc(C(=O)C(C)OC(=O)CCN2C(=O)C3C4C=CC(C5CC45)C3C2=O)cc1 (stereo unspecified) 10 µM [activator, single point]
CCN(CC)CCN(Cc1cc2cc3c(cc2[nH]c1=O)OCCO3)C(=S)NCC1CCCO1 (stereo unspecified) 3.16 µM [activator, single point]
CCOc1cc(C(F)(F)F)cnc1/C(N)=N/O 3.55 µM [activator, partial curve, poor fit]
O=C(Nc1nc2ccccc2[nH]1)c1ccccc1F 2.51 µM [activator, partial curve, poor fit]
COC(=O)[C@H](Cc1ccccc1)NC(=O)Nc1ccc(OC)cc1 5.01 µM [activator, single point]
CC(C)CNC(=O)NC(=O)COC(=O)C1CSC2(c3ccc(F)cc3)CCC(=O)N12 (stereo unspecified) 4.47 µM [activator, single point]
O=C(NNC(=O)c1ccccc1[N+](=O)[O-])c1cccs1 2 µM [activator, partial curve, poor fit]
CCOC(=O)c1c(C)[nH]c(C(=O)COC(=O)CCS(=O)(=O)c2ccc(C)cc2)c1C 2.51 µM [activator, single point]
COc1cc(S(=O)(=O)n2cnc(C)c2)ccc1Br 5.01 µM [activator, single point]
CC(C)(C)P(=O)(CO)c1ccccc1 (stereo unspecified) 6.31 µM [activator, partial curve, poor fit]
O=C(O)CN1C(=O)/C(=C\c2cc([N+](=O)[O-])ccc2OCc2ccccc2Cl)SC1=S 3.55 µM [activator, partial curve, poor fit]
Cc1ccc(NP(=O)(c2ccc(N(C)C)cc2NC(=O)c2cccs2)N2CCOCC2)cc1 (stereo unspecified) 28.2 µM [activator, single point]
O=c1cnnc(Nc2cccc(F)c2)[nH]1 22.4 µM [activator, single point]
O=C(CCC1CCCN(C(=O)c2ccoc2)C1)NCc1ccccc1F (stereo unspecified) 7.94 µM [activator, partial curve]
CN(C)CCC(=O)N1c2ccccc2Sc2ccc(Cl)cc21 5.01 µM [activator, single point]
O=[N+]([O-])c1cc(Cl)ccc1Sc1ccccn1 1.78 µM [activator, partial curve, poor fit]
CC(C)Cc1nnc(NC(=O)c2cc(-c3ccncc3)nc3ccccc23)s1 25.1 µM [activator, partial curve, poor fit]
COc1ccc(CCNC(=O)CSc2ccccn2)cc1 28.2 µM [activator, single point]
O=C1CC(N2CCN(c3ccccc3)CC2)C(=O)N1c1ccc2c(c1)OCO2 (stereo unspecified) 28.2 µM [activator, single point]
CC(C)CN(C(=O)COc1ccc([N+](=O)[O-])cc1)c1c(N)n(CC(C)C)c(=O)[nH]c1=O 12.6 µM [activator, partial curve, poor fit]
CC1CN(C(=S)SCCN2Cc3ccccc3C2=O)CC(C)O1 (stereo unspecified) 12.6 µM [activator, single point]
Cc1c(NC(=O)c2ccccc2NS(=O)(=O)c2ccc(F)cc2)c(=O)n(-c2ccccc2)n1C 11.2 µM [activator, single point]
CC(=O)c1ccc2c3c(cccc13)C(=O)N(c1c(C)nn(C)c1C)C2=O 3.55 µM [activator, partial curve, poor fit]
COc1ccc(N2C(=O)c3cccc4c(N(C)CCO)ccc(c34)C2=O)cc1 5.01 µM [activator, single point]
Cc1ccc(N(Cc2ccccc2)C(=O)CN2C(=O)NC3(CCCC3)C2=O)cc1 17.8 µM [activator, single point]
COc1ccc(NC(=O)c2ccc3nc(C)sc3c2)cc1 4.47 µM [activator, full curve]
O=C(Cn1cnc2ccccc2c1=O)c1ccc(OC(F)F)cc1 10 µM [activator, single point]
COc1ccc(Cl)cc1NC(=O)C1COc2ccccc2O1 (stereo unspecified) 5.01 µM [activator, single point]
Cc1cccc(NS(=O)(=O)c2ccc3c(c2)NC(=O)CC(=O)N3)c1 5.01 µM [activator, single point]
CCN1CCN(CCCN(Cc2cccs2)C(=S)Nc2ccccc2C)CC1 2 µM [activator, single point]
COc1ccc(CCNC(=O)CCn2c(SCC(=O)N3CCCC3)nc3ccccc3c2=O)cc1OC 2.82 µM [activator, single point]
COc1ccccc1CN1CC(C(=O)NCCc2ccc(Cl)cc2)CC1=O (stereo unspecified) 3.55 µM [activator, partial curve, poor fit]
O=C(COC(=O)c1cnccn1)Nc1ccc(Cl)cc1C(F)(F)F 3.55 µM [activator, full curve, poor fit]
COc1ccc(N(C(=O)CSCC(=O)Nc2cc(C)on2)C(C(=O)NC2CCCCC2)c2ccc(O)c(O)c2)cc1 (stereo unspecified) 3.16 µM [activator, full curve]
Cc1ccc(C(=O)N2CC(C)OC(C)C2)cc1S(=O)(=O)N1CCCCC1 (stereo unspecified) 28.2 µM [activator, single point]

No new results follow: entries from further up.
Potency, inconclusive:
O=C(NCCOc1ccccc1)C(=O)c1c[nH]c2ccccc12 0.891 µM [activator, partial curve, poor fit]
Cc1ccccc1C(C(=O)NC1CCCCC1)N(C(=O)CNC(=O)c1ccco1)c1cccnc1 (stereo unspecified) 17.8 µM [activator, single point]
Cc1c(C(=O)O)sc2nc(/C=C/c3ccccc3OC(F)F)[nH]c(=O)c12 2.82 µM [activator, single point]
Cc1ccc(C(=O)C(C)OC(=O)CCN2C(=O)C3C4C=CC(C5CC45)C3C2=O)cc1 (stereo unspecified) 10 µM [activator, single point]

Next part:

activation, inactive:
N#C/C(=C/c1ccc(N2CCCCCC2)o1)c1ccc(F)cc1 -38.9%
COc1ccc(CCn2c(=N)c(C(=O)NCC3CCCO3)cc3c(=O)n4ccccc4nc32)cc1OC (stereo unspecified) -23.7%
O=C(Nc1ccccc1N1CCCCC1)C1CCN(S(=O)(=O)c2ccccc2C(F)(F)F)CC1 -41.1%
COc1ccc2[nH]c(CN3CCN(CC=C(C)C)C(CCO)C3)c(C)c2c1 (stereo unspecified) 3.31%
O=C(Nc1cccc(S(=O)(=O)N2CCCCCC2)c1)c1ccc(Cl)nc1 -4.28%
COC(=O)CNC(=O)C1CCN(c2nc(C)cc(C)n2)CC1 -28.5% [at 7.66 µM]
NNC(=O)c1ccc(N2CCc3ccccc32)c([N+](=O)[O-])c1 16.6%
O=C1NC[C@H](Cc2ccccc2)N(CC2CCN(CCC3CCCC3)CC2)C1=O -10.4%
c1ccc(CSc2nnc(-c3ccncc3)o2)cc1 30%
CCOc1ccc(NC(=O)CNc2cccc(S(=O)(=O)N3CCCCCC3)c2)cc1OCC -22.4%
COc1ccc(-n2c(COc3cccc(C)c3)nnc2SCC(=O)O)cc1 22.7%
O=C(/C=C/C=C/c1ccc2c(c1)OCO2)N1CCCCC1 24.4%
O=C(CCCN1C(=O)/C(=C\c2ccco2)SC1=S)Nc1ccc2ccccc2c1 11.3%
Cc1ccc(Oc2cc([N+](=O)[O-])cc3c2C(=O)Nc2ccccc2O3)cc1 0.0955%
c1ccc(NC2=NCCN2CCCC2CCCC2)cc1 14.2%
CN1CCc2c(sc3nc(SCC(N)=O)n(-c4ccccc4)c(=O)c23)C1 -12.1%
CN1CCN(CCCNC(=O)c2cn(C3CCCCC3)c(=O)c3c2c2ccccc2n3C)CC1 -40.5%
COc1ccc(C2CC(c3cccc(Cl)c3)=NN2c2ccc(S(N)(=O)=O)cc2)cc1 (stereo unspecified) -37%
CCCC(c1nnnn1Cc1ccccc1)N1CCN(c2ccccc2OC)CC1 (stereo unspecified) 13.7%
COCCNC(=O)C(c1cccs1)N(C(=O)Cn1nnc2ccccc21)c1ccc(OC)cc1 (stereo unspecified) 8.52%
O=C(CSc1nc(-c2ccccc2)cc(C(F)(F)F)n1)NCc1cccs1 0.0618%
CCc1cc2cc(C(=O)N3CCN(Cc4ccccc4)CC3)sc2s1 15.6%
c1ccc(OCCCCn2cnc3ccccc32)cc1 -17.5%
Cc1ccc(C(=O)NCC(=O)Nc2ccccc2C(F)(F)F)cc1 -1.73%
Cc1ccc(/C=C/C(=O)NC2CCCCCCC2)o1 -40.7%
COc1ccc(NC(=O)Nc2nnc(C(C)C)s2)cc1 -6% [at 7.66 µM]
Cc1cc(C(=O)NNS(=O)(=O)c2cc(C(=O)O)ccc2Cl)c(C)n1-c1ccccc1 5.58%
CC1(C)CC(N2CCOCC2)=CC(=[N+]2CCOCC2)C1 9.15%
Cc1cc(C(=O)COc2ccccc2C(N)=O)c(C)n1CC1CCCO1 (stereo unspecified) -41.3%
CC1CCN(c2c(NCC3CCC(C(=O)NCCC4=CCCCC4)CC3)c(=O)c2=O)CC1 (stereo unspecified) 27.2%
CCN(CC)S(=O)(=O)c1ccc(C(=O)NC(=S)N(CCC#N)Cc2cccnc2)cc1 13.7%
